Some entries of the source have several records that differ or are many. This list holds those alone. The source may hold further records. Results that share an entry appear to be repeats (runs, samples, wells or individuals); a mean can stand among them.
Biological target: S1P1 (Homo sapiens, UniProt P21453)
Assay: Desensitization of S1P-induced BNCI response in HUVEC (second stimulation with 80 nM S1P)
Format: cell-based
Conditions: desensitization IC50 / early phase EC50, geometric mean

Protein sequences, listed by entry. Tags and fused reporters are not part of them.
UniProt P21453, whole entry: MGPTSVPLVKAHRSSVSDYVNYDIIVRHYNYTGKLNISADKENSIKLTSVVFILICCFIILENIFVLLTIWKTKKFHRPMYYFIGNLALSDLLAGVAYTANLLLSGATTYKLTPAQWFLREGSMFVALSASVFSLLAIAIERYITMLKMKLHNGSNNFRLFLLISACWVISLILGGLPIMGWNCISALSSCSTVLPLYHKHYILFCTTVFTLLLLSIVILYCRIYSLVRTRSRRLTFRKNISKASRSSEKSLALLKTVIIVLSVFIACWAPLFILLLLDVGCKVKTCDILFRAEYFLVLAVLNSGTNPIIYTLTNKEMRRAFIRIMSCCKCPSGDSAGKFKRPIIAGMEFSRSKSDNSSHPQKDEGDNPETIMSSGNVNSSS

Cc1cc(-c2nc3cnc(Oc4cccc(Cl)c4)nc3o2)cc(C)c1OCC(=O)O [SAR247799]
Activation-to-desensitization ratio [95% CI]: 114 (91.1–143) and 114 [91.1–143] and 114

Source: article PMC7530392, “A label‐free impedance assay in endothelial cells differentiates the activation and desensitization properties of clinical S1P1 agonists” (FEBS Open Bio, 2020)
